This note sets out measurements from ChEMBL document CHEMBL1221220, “Transport and signaling via the amino acid binding site of the yeast Gap1 amino acid transceptor” (Nat Chem Biol, 2009).

The structures appear in SMILES notation.

For the assay, the target named is T1, General amino-acid permease GAP1 (Saccharomyces cerevisiae) (UniProt P19145).
T1 sequence (whole entry): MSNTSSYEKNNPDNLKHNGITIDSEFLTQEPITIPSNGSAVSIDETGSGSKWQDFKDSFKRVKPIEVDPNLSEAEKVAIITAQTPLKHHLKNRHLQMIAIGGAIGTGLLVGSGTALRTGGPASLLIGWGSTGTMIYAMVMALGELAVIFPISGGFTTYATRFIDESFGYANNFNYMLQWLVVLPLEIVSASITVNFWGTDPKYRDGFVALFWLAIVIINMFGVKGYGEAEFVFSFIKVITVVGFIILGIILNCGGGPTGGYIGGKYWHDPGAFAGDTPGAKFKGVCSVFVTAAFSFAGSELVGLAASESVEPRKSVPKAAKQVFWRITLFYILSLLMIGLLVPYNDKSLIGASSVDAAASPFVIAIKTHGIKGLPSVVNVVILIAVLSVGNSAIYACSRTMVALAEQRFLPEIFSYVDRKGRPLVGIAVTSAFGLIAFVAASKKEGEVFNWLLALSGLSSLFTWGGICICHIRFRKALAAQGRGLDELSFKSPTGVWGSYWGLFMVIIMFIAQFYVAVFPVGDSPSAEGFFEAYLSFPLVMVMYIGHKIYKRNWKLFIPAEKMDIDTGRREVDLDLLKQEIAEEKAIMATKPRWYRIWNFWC
The settings on record: sigma1278b, at 5 mM.
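Note: amino acid uptake through Gap1 in nitrogen-starved wild-type yeast cells, measured after 60 s and expressed relative to L-citrulline.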

Consider `CCC[C@H](NC(=O)OC(C)(C)C)C(=O)O`, for which the inhibition (as a rule, how much of the control response was suppressed) was less than 15%.
